Experimental data from ChEMBL document CHEMBL1159187, “Novel polyamine derivatives as potent competitive inhibitors of Trypanosoma cruzi trypanothione reductase” (Bioorg Med Chem Lett, 1995).

The chains behind the UniProt entries cited, without tags or fusion partners. Where a name states a change or a piece, a line headed by the entry shows the natural chain unless it says otherwise.
UniProt P28593: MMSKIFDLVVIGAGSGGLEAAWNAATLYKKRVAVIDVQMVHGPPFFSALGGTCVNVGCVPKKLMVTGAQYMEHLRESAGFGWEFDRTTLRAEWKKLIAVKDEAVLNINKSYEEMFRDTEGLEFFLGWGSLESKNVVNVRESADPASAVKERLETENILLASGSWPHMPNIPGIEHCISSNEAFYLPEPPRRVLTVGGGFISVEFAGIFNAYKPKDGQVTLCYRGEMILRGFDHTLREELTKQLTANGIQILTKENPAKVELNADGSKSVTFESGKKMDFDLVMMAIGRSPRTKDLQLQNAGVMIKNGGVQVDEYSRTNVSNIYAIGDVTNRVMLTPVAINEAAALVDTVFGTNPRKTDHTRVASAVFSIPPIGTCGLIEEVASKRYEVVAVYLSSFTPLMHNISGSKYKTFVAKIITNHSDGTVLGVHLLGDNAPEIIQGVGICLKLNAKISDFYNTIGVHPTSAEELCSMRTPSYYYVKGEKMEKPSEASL

Biological target: Trypanothione reductase (Trypanosoma cruzi, UniProt P28593)
Test: Compound was evaluated for the competitive inhibition of trypanothione reduction by recombinant Trypanothione reductase from Trypanosoma cruzi

- Ki: 6.5 µM
SMILES: CN(C)CCCN1c2ccccc2CCc2ccc(Cl)cc21 [CLOMIPRAMINE]
